Results reported in publication PMC6497791.
Results are given in words; binding and its absence hold for the method and conditions named. Binding seen in cells or lysates may run through a third protein. These calls come from enrichment with a bait or labelling near it, and not all partners need be listed. Values belong to the binder of their own block, whether it stands above or below them.

By UniProt entry, the sequences of proteins in these tests, tags left out. Residues count along the entry.
UniProt P22723, residues 39-474: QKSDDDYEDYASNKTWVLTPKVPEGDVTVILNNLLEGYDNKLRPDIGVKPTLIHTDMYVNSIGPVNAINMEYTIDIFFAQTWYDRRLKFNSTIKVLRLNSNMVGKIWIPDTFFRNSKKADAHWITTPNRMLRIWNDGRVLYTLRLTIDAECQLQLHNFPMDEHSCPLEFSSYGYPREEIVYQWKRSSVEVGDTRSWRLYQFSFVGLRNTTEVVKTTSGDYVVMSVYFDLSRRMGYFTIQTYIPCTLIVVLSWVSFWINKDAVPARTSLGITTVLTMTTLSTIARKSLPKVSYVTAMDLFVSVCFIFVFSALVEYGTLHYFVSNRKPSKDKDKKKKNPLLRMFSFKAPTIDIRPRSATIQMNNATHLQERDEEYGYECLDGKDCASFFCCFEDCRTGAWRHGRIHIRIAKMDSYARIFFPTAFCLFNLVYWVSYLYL

Biological target: GABA type A receptor γ2 subunit (mouse (endogenous in cortical tissue)) (UniProt P22723)
Assay: affinity purification with mass spectrometry; mouse cortical tissue lysate (mice injected with vehicle or 10 mg/kg DZP, 12 h) in co-IP buffer (50 mM Tris HCl pH 7.6, 50 mM NaCl, 0.25% Igepal, 1 mM EDTA), immunoprecipitated overnight with rabbit γ2 subunit antibody or rabbit IgG, Protein A Sepharose, 4°C; label-free HPLC-ESI-MS/MS; hits at least 3:1 enriched over IgG control

B1: Internexin neuronal intermediate filament protein alpha (protein, UniProt P46660 1-501)
chain: MSFGSEHYLCSASSYRKVFGDSSRLSARLSGPGGSGSFRSQSLSRSNVASTAACSSASSLGLGLAYRRLPASDGLDLSQAAARTNEYKIIRTNEKEQLQGLNDRFAVFIEKVHQLETQNRALEAELAALRQRHAEPSRVGELFQRELRELRAQLEEASSARAQALLERDGLAEEVQRLRARCEEESRGREGAERALKAQQRDVDGATLARLDLEKKVESLLDELAFVRQVHDEEVAELLATLQASSQAAAEVDVAVAKPDLTSALREIRAQYESLAAKNLQSAEEWYKSKFANLNEQAARSTEAIRASREEIHEYRRQLQARTIEIEGLRGANESLERQILELEERHSAEVAGYQDSIGQLESDLRNTKSEMARHLREYQDLLNVKMALDIEIAAYRKLLEGEETRFSTGGLSISGLNPLPNPSYLLPPRILSSTASKVSSAGLSLKKEEEEEEEEASKEVSKKTSKVGEGFEETLGEAVISTKKTGKSATEESTSSSQKM
binding: binds

B2: Prohibitin (protein, UniProt P67778 1-272)
chain: MAAKVFESIGKFGLALAVAGGVVNSALYNVDAGHRAVIFDRFRGVQDIVVGEGTHFLIPWVQKPIIFDCRSRPRNVPVITGSKDLQNVNITLRILFRPVASQLPRIYTSIGEDYDERVLPSITTEILKSVVARFDAGELITQRELVSRQVSDDLTERAATFGLILDDVSLTHLTFGKEFTEAVEAKQVAQQEAERARFVVEKAEQQKKAAIISAEGDSKAAELIANSLATAGDGLIELRKLEAAEDIAYQLSRSRNITYLPAGQSVLLQLPQ
binding: binds

B5: Solute carrier family 25 member 3 (protein, UniProt Q8VEM8 46-357)
chain: AVEEYSCEFGSMKYYALCGFGGVLSCGLTHTAVVPLDLVKCRMQVDPQKYKGIFNGFSITLKEDGVRGLAKGWAPTLIGYSMQGLCKFGFYEVFKALYSNILGEENTYLWRTSLYLASSASAEFFADIALAPMEAAKVRIQTQPGYANTLREAVPKMYKEEGLNAFYKGVAPLWMRQIPYTMMKFACFERTVEALYKFVVPKPRSECTKAEQLVVTFVAGYIAGVFCAIVSHPADSVVSVLNKEKGSTASQVLQRLGFRGVWKGLFARIIMIGTLTALQWFIYDSVKVYFRLPRPPPPEMPESLKKKLGLTE
binding: binds

B6: KxDL motif containing 1 (protein, UniProt Q80XH1 1-177)
chain: MDTPDSASRVFCGRFLSMVNTDDVNAIILAQKNMLDRFEKTNEMLLNFNNLSSVRLQQMSERFMHHTRTLVDMKRDLDSIFRRIRTLKGKLARQHPEAFSHIPEGSFLEDEDEDPIPPSITTTIATSEQSTGSCDTSPDTVSPSLSPGFEDLSHIQPGSPAINGHRQTDDEEETHEE
binding: binds

Next, values leading:

binding: binds
B3: Transmembrane protein with EGF like and two follistatin like domains 2 (protein, UniProt Q9QYM9 41-374)
chain: FPTSLSDCQTPTGWNCSGYDDRENDLFLCDTNTCKFDGECLRIGDTVTCVCQFKCNSDYVPVCGSNGESYQNECYLRQAACKQQSEILVVSEGSCATDTGSGSGDGVHEGSGETSQKETSTCDICQFGAECDEDAEDVWCVCNIDCSQTNFNPLCASDGKSYDNACQIKEASCQKQEKIEVMSLGRCQDNTTTTTKSEDGHYARTDYAENANKLEESAREHHIPCPEHYNGFCMHGKCEHSINMQEPSCRCDAGYTGQHCEKKDYSVLYVVPGPVRFQYVLIAAVIGTIQIAVICVVVLCITRKCPRSNRIHRQKQNTGHYSSDNTTRASTRLI

binding: binds
B4: Tyrosine 3-monooxygenase/tryptophan 5-monooxygenase activation protein gamma (14-3-3 gamma) (protein, UniProt P61982 1-247)
chain: MVDREQLVQKARLAEQAERYDDMAAAMKNVTELNEPLSNEERNLLSVAYKNVVGARRSSWRVISSIEQKTSADGNEKKIEMVRAYREKIEKELEAVCQDVLSLLDNYLIKNCSETQYESKVFYLKMKGDYYRYLAEVATGEKRATVVESSEKAYSEAHEISKEHMQPTHPIRLGLALNYSVFYYEIQNAPEQACHLAKTAFDDAIAELDTLNEDSYKDSTLIMQLLRDNLTLWTSDQQDDDGGEGNN
